# Data: PubChem BioAssay AID624297 (National Center for Advancing Translational Sciences (NCATS), 2012)
# Hit rate of the full screen: of about 340,000 compounds, about 6,200 (1.8%) were called active. Inconclusive results, whose numbers are uncertain, are shown with a selection of clear calls. Calls come from the whole dose curve; as a rule, active = well fitted activation curve with a large enough effect; inconclusive = small, poorly fitted or top-dose-only effect; inactive = no such curve, though single readings can be large or run the other way. Potencies beside an inconclusive call are fits to weak or partial responses and may not hold up.
# Experiment: A quantitative high throughput screen for small molecules that induce DNA re-replication in SW480 colon adenocarcinoma cells. For re-replication activation: % of control where 0% means no effect. Note: nearly all actives have a fitted effect of over 55% in size.
# Details: Hoechst DNA content imaging, 48 h; re-replication activation: at 46.1 µM (top of the series) unless noted
# Procedure, shortened: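 Quantitative HTS format with DMSO vehicle controls; 48 hr drug incubation at 37 C, then 40 min Hoechst staining and scanning imager measurement at 405 nm excitation.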
# Potency is the fitted concentration of half-maximal effect.
SMILES,Potency,re-replication activation
CC/C(=N\NC(=S)NC(C)C)c1ccc(OC)c(OC)c1,"inconclusive: 20.6 µM [activator, single point]",
Cc1nc(SCC(=O)N2CCCc3ccccc32)c2oc3ccccc3c2n1,active: 16.4 µM,
CCN1/C(=C/c2ccc3cc(C)ccc3[n+]2C)Sc2ccc3sccc3c21,"inconclusive: 14.6 µM [activator, single point]",
O=C1c2ccccc2CCC12N=NCC2c1ccc(Cl)cc1 (stereo not drawn),,inactive: -2.31%
COc1ccc(NC(=O)CCCC(=O)c2ccccc2)cc1,"inconclusive: 0.731 µM [activator, full curve, poor fit]",
COc1ccc(NC(=O)c2cc3ccc(O)cc3o/c2=N\O)cc1,"inconclusive: 10.3 µM [activator, partial curve, poor fit]",
CN(CCC#N)C(=O)COC(=O)c1c2c(nc3ccccc13)/C(=C\c1ccco1)CC2,active: 4.11 µM,
O=C(NCC(O)CO)c1csc(Nc2cccc3ccccc23)n1 (stereo not drawn),,inactive: -34.1%
C[C@@H](CN(C)C)CN1c2ccccc2CCc2ccccc21,,inactive: -6.97% [at 20.6 µM]
O=C(CN1C(=O)NC2(CCCCCC2)C1=O)N1CCC(Cc2ccccc2)CC1,,inactive: 0.628%
CCO[C@@H]1OC(C(=O)NCc2nc3ccccc3[nH]2)=C[C@H](c2ccccc2)[C@H]1CCCO,"inconclusive: 1.84 µM [activator, partial curve, poor fit]",
Cc1ccc(NCC2(N=Cc3ccccc3)OC(CO)C(O)C2O)cc1 (stereo not drawn),"inconclusive: 29.1 µM [activator, partial curve, poor fit]",
O=C(c1cc(S(=O)(=O)N2CCOCC2)ccc1F)N1CCc2ccccc21,,inactive: -17.3%
COc1cccc(C(=O)C(C#N)=C(SC)SC)c1,"inconclusive: 29.1 µM [activator, single point]",
COc1cccc(C(=O)Nc2nc(-c3ccccc3)c(-c3ccccc3)o2)c1,"inconclusive: 20.6 µM [activator, single point]",
C=CCc1ccc(OCCCCN2CC(C)CC(C)C2)c(OC)c1 (stereo not drawn),"inconclusive: 29.1 µM [activator, partial curve, poor fit]",
CCN1CCc2c(sc(NC(=O)Cc3ccccc3)c2C(N)=O)C1,,inactive: -0.893%
Oc1ccccc1/C=N/Nc1ncc(Br)cn1,"inconclusive: 3.26 µM [activator, full curve, poor fit]",
COc1cc(CN2CCC(Cc3ccccc3)CC2)cc([N+](=O)[O-])c1O,"inconclusive: 0.058 µM [activator, full curve, poor fit]",
c1ccc(-c2ccc(OCCCNC3CCCC3)cc2)cc1,"inconclusive: 20.6 µM [activator, single point]",
COC(=O)C(NC(=O)c1ccc(OC)cc1)(Nc1ncc(S(=O)(=O)c2ccc([N+](=O)[O-])cc2)s1)C(F)(F)F (stereo not drawn),"inconclusive: 20.6 µM [activator, single point]",
CCC(=O)NC(C)c1cc(Cl)c2cccnc2c1O (stereo not drawn),"inconclusive: 5.8 µM [activator, full curve, poor fit]",

SMILES,Potency,re-replication activation
O=C(O)CC1(CC(=O)Nc2ccc(F)c(Cl)c2)CCCCC1,"inconclusive: 0.0065 µM [activator, full curve, poor fit]",
CN1c2ccc(Cl)cc2C(=O)NC1c1ccc([N+](=O)[O-])s1 (stereo not drawn),,inactive: 41.8%
O=C(N/N=C/c1ccccc1C(=O)O)c1cccc(S(=O)(=O)N2CCCCC2)c1,"inconclusive: 32.6 µM [activator, single point]",
CC1Cc2ccccc2N1C(=O)CSc1nnc(Cc2ccccc2)n1CCc1ccccc1 (stereo not drawn),"inconclusive: 18.4 µM [activator, single point]",
COc1ccc(OC)c(C(=O)NC(CC(N)=O)c2ccc(NCCN3CCOCC3)c([N+](=O)[O-])c2)c1 (stereo not drawn),"inconclusive: 4.61 µM [activator, partial curve, poor fit]",
COc1ccc(NC(=O)/C(Cl)=C(/Cl)S(=O)Cc2ccccc2Cl)cn1 (stereo not drawn),"inconclusive: 20.6 µM [activator, single point]",
COc1ccc(N2CCN(CCC(N)=O)CC2)cc1,,inactive: -5.4%
CSc1ccc(/C=N/n2c(Cc3ccc(Br)cc3)n[nH]c2=S)cc1,"inconclusive: 25.9 µM [activator, single point]",
O=C(NNc1ccccc1Br)C(O)(c1cccc(C(F)(F)F)c1)c1cccc(C(F)(F)F)c1,"inconclusive: 0.461 µM [activator, full curve, poor fit]",
CO/N=C\CC(=O)Nc1ccc(Cl)cc1Cl,active: 7.31 µM,
Cc1nc(SCC(=O)N2CCCC2=O)nc(C)c1C,,inactive: -5.28%
COc1cccc(NC(=O)C2CC(=O)N(Cc3ccco3)C2)c1 (stereo not drawn),,inconclusive: 127% [activator]
COc1cc(C2C3=C(COC3=O)Oc3cc4c(cc32)OCO4)ccc1O (stereo not drawn),active: 1.84 µM,
COc1cc(OC)cc(C(=O)NCCCCCCNC(=O)c2cc(OC)cc(OC)c2)c1,"inconclusive: 0.0041 µM [activator, full curve, poor fit]",
O=C(Nc1cccc2ccccc12)C1CCCC1,"inconclusive: 11.6 µM [activator, single point]",
Cc1onc(-c2c(F)cccc2Cl)c1C(=O)NNC(=O)C1CCN(Cc2ccccc2)CC1,"inconclusive: 0.231 µM [activator, partial curve, poor fit]",
COc1ccc(Cl)c(OC)c1C(=O)NC(=O)Nc1c(F)cc(F)cc1F,"inconclusive: 6.51 µM [activator, partial curve, poor fit]",
CCOC(=O)c1c(C)c(C(=O)Nc2cc(OC)ccc2OC)c(C)n1CC,"inconclusive: 20.6 µM [activator, single point]",
O=[N+]([O-])c1ccc(/C=N/Nc2ccc3ccccc3c2)o1,"inconclusive: 29.1 µM [activator, single point]",
Cc1nc(COC(=O)c2cc(O)c3ccccc3c2O)cs1,active: 7.31 µM,
Cc1nc([N+](=O)[O-])c(Br)n1CC(=O)c1ccc(Cl)cc1,"inconclusive: 23.1 µM [activator, single point]",

# Structures from the list above that contain a nitro group on carbon (6):
SMILES,Potency,re-replication activation
COc1cc(CN2CCC(Cc3ccccc3)CC2)cc([N+](=O)[O-])c1O,"inconclusive: 0.058 µM [activator, full curve, poor fit]",
COC(=O)C(NC(=O)c1ccc(OC)cc1)(Nc1ncc(S(=O)(=O)c2ccc([N+](=O)[O-])cc2)s1)C(F)(F)F (stereo not drawn),"inconclusive: 20.6 µM [activator, single point]",
CN1c2ccc(Cl)cc2C(=O)NC1c1ccc([N+](=O)[O-])s1 (stereo not drawn),,inactive: 41.8%
COc1ccc(OC)c(C(=O)NC(CC(N)=O)c2ccc(NCCN3CCOCC3)c([N+](=O)[O-])c2)c1 (stereo not drawn),"inconclusive: 4.61 µM [activator, partial curve, poor fit]",
O=[N+]([O-])c1ccc(/C=N/Nc2ccc3ccccc3c2)o1,"inconclusive: 29.1 µM [activator, single point]",
Cc1nc([N+](=O)[O-])c(Br)n1CC(=O)c1ccc(Cl)cc1,"inconclusive: 23.1 µM [activator, single point]",
